From PMC3401498
Results are given in words; binding and its absence hold for the method and conditions named. Some results given as binding are weak or reduced against the parent protein; the word gives no strength.

Experiments:
[1] = molecular target: Pyrococcus furiosus archaeoferritin (product of gene PF1196) (Pyrococcus furiosus) (UniProt Q8U1L0); experiment: dynamic light scattering; as-isolated AFR loaded with 0, 10, 30 and 50 Fe(III) ions per monomer at 55 °C; measured at 25 °C; both purified
[2] = molecular target: Pyrococcus furiosus archaeoferritin (product of gene PF1196) (Pyrococcus furiosus) (UniProt Q8U1L0); experiment: SEC; AFR loaded aerobically with more than 2 Fe(III) ions per monomer; 48 μM (monomer); Superdex 200, 100 mM MOPS pH 7.0; read at 280 and 315 nm; both purified

- binding [1]: binds
- binding [2]: binds
B1: Pyrococcus furiosus archaeoferritin (product of gene PF1196) (protein, UniProt Q8U1L0 1-184)
chain: MDIEEEIVKKLENLSIKEILGYAIASEEDAEKFYSELATKLGGLLKEFFTQLSTAERGHKEILLRIYKSKFGDENYPVPEGIPFAETTIKVETVRNLIEAMKIALTNEKTAERVYKYLAEKMPEHREIFKFLATQERSHYESLRAHKEFLEDTVESKPEYIEAPPTYISSQLEIPFGPEYRGAR
